Results deposited as PubChem BioAssay AID720505 (Drosophila RNAi Screening Center, 2013).
The screen tested about 20,000 reagents; shown is a random part of those with a known target gene and a result. Of all reagents, about 2,100 (10%) are marked active. 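Raw plate signals without normalisation; calls rest on control-based scores that were not deposited; replicate 2 separates called from uncalled poorly.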 A plus sign joins genes that one reagent is predicted to hit. Not given: the amount of reagent, the time to read-out.

Aim: 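Knock-downs that reduce calcium influx once internal stores are emptied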 (primary screen)
System: Drosophila S2R+ cells
Reagent: long dsRNA against Drosophila genes
Challenge: thapsigargin (2 µM) in calcium-free buffer to empty internal stores, then 2 mM calcium added back
Read-out: 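Fluo-4 signal in 384-well plates read on a FLIPR after thapsigargin (2 µM, calcium-free) store depletion and 2 mM calcium add-back; unnormalised mean endpoint per well; screen run twice, selected wells retested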
Reading the numbers: calcium signal and retest calcium signal: higher = more calcium entry after store depletion
Active means: 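Knock-downs counted as hits when calcium entry dropped relative to STIM1 positive and Rho1 negative controls present on each plate; roughly 1500 genes called, with reductions of differing size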
Calls: active = called as lowering calcium entry; inactive = not called

no.	predicted target	dsRNA	calcium signal, replicate 1	calcium signal, replicate 2	retest calcium signal, replicate 1	retest calcium signal, replicate 2	call
1	Vps36 (Vacuolar protein sorting 36)	DRSC09785	115	115			inactive
2	Cox17 (Cytochrome c oxidase copper chaperone COX17)	DRSC20145	76.7	100			inactive
3	Prim2 (DNA primase subunit 2)	DRSC11610	118	91			inactive
4	Eps-15 (Epidermal growth factor receptor pathway substrate clone 15)	DRSC04288	181	81.6			inactive
5	CG14805	DRSC18554	118	123			inactive
6	Rexo5 (RNA exonuclease 5)	DRSC10981	98.4	79.7			inactive
7	Adck1 (aarF domain containing kinase 1)	DRSC04394	41.2	198			active
8	Spn88Ea (Serpin 88Ea)	DRSC17061	123	181			inactive
9	unc-45 (uncoordinated 45)	DRSC15449	131	176			inactive
10	Cpr92F (Cuticular protein 92F)	DRSC15819	256	176			inactive
11	Ltn1 (Listerin E3 ubiquitin protein ligase 1)	DRSC11056	107	111			inactive
12	Ltn1 (Listerin E3 ubiquitin protein ligase 1)	DRSC11058	109	141			inactive
13	Sbf (SET domain binding factor)	DRSC16852	99.3	122			inactive
14	intr (intrepid)	DRSC14528	114	136			inactive
15	CG10068	DRSC12508	106	101			inactive
16	dpr16 (defective proboscis extension response 16)	DRSC12217	65.3	118			active
17	dpr16 (defective proboscis extension response 16)	DRSC12249	104	123			inactive
18	Ude (Uracil-DNA degrading factor)	DRSC15324	146	201			inactive
19	CG14797	DRSC17955	105	128			inactive
20	mRpL20 (mitochondrial ribosomal protein L20)	DRSC09828	55	120			active
21	Mtmr6 (Myotubularin related protein 6)	DRSC04046	105	136			inactive
22	CG32074	DRSC22246	119	139			inactive
23	RhoGEF3 (Rho guanine nucleotide exchange factor 3)	DRSC08266	55.3	60.2	133	109	active
24	RhoGEF3 (Rho guanine nucleotide exchange factor 3)	DRSC08351	83.8	109			inactive
25	RhoGEF3 (Rho guanine nucleotide exchange factor 3)	DRSC08352	80.9	113			inactive
26	RhoGEF3 (Rho guanine nucleotide exchange factor 3)	DRSC08353	87.2	64.4			inactive
27	CG11858	DRSC14412	210	124	105	89.8	inactive
28	Nmda1 (N-methyl-D-aspartate receptor-associated protein)	DRSC07479	169	145			inactive
29	ZnT33D (Zinc transporter 33D)	DRSC02591	80.5	127			inactive
30	GC1	DRSC15322	152	101			inactive
31	CG4042	DRSC11751	98.9	119			inactive
32	Prp16 (pre-mRNA processing factor 16)	DRSC19538	81.4	70.2			inactive
33	Prp16 (pre-mRNA processing factor 16)	DRSC19542	61.1	138			active
34	CG18476	DRSC15281	111	127			inactive
35	CG11593	DRSC08206	88	86.4			inactive
36	Or30a (Odorant receptor 30a)	DRSC03385	135	132			inactive
37	Lrt (Leucine-rich tendon-specific protein)	DRSC06045	69.1	105			inactive
38	Raf (Raf oncogene)	DRSC18821	58.3	107			active
39	Raf (Raf oncogene)	DRSC23311	115	139			inactive
40	CG44000 + CG33995 + CG44001	DRSC00853	73	156			inactive
41	CG44000 + CG33995 + CG44001	DRSC02898	52.5	158			active
42	Xrcc2 (X-ray repair cross complementing 2)	DRSC19984	65.9	117			active
43	CG8157	DRSC07085	127	173			inactive
44	CG8157	DRSC21595	118	94.4			inactive
45	dyl (dusky-like)	DRSC08466	92.4	88.5			inactive
46	dyl (dusky-like)	DRSC08467	106	135			inactive
47	CG6497	DRSC10654	96.2	121			inactive
48	CG6497	DRSC21469	107	92			inactive
49	CG31872	DRSC02568	193	140			inactive
50	CG31872	DRSC02572	189	159			inactive
51	CG2694	DRSC18470	110	144			inactive
52	CG5561	DRSC00688	155	155			inactive
53	stnB + stnA	DRSC20969	148	180			inactive
54	stnB + stnA	DRSC21112	187	105			inactive
55	stnB + stnA	DRSC21113	127	104			inactive
56	CG17841	DRSC17737	122	102			inactive
57	Brf (Brf RNA polymerase III subunit)	DRSC14166	124	197			inactive
58	Brf (Brf RNA polymerase III subunit)	DRSC14167	118	190			inactive
59	side-VIII (sidestep VIII)	DRSC05880	101	105			inactive
60	side-VIII (sidestep VIII)	DRSC05883	64.1	119			active
61	side-VIII (sidestep VIII)	DRSC06157	106	78.3	100	115	inactive
62	side-VIII (sidestep VIII)	DRSC23187	121	131			inactive
63	CG7878	DRSC16330	84.9	152			inactive
64	mTerf3 (mitochondrial transcription termination factor 3)	DRSC11759	124	94.8			inactive
65	Tdrd3 (Tudor domain containing 3)	DRSC10016	119	130			inactive
66	Wdr33 (WD repeat domain 33)	DRSC12162	140	186			inactive
67	Rpp14b (Ribonuclease P/MRP subunit p14 b)	DRSC15063	172	112			inactive
68	IRSp53 (Insulin receptor substrate 53 kDa)	DRSC10891	86.5	101			inactive
69	sstn (stepping stone)	DRSC10753	93	155			inactive
70	Zaf1 (ZAD and Architectural Function 1)	DRSC16121	125	119			inactive
71	CG32568	DRSC19913	95.8	122			inactive
72	CG12725	DRSC19501	127	93.5			inactive
73	Antdh (Antennal dehydrogenase)	DRSC20307	63.8	126			active
74	Aldh7A1 (Aldehyde dehydrogenase 7 family member A1)	DRSC11083	152	106			inactive
75	Ank2 (Ankyrin 2)	DRSC09666	91.7	87.7			inactive
76	Ank2 (Ankyrin 2)	DRSC10338	120	84.3			inactive
77	Ank2 (Ankyrin 2)	DRSC11278	94.5	84.3			inactive
78	Ank2 (Ankyrin 2)	DRSC22922	132	161			inactive
79	chinmo (Chronologically inappropriate morphogenesis)	DRSC00292	167	263			inactive
80	chinmo (Chronologically inappropriate morphogenesis)	DRSC00485	112	114			inactive
81	chinmo (Chronologically inappropriate morphogenesis)	DRSC00509	147	128			inactive
82	chinmo (Chronologically inappropriate morphogenesis)	DRSC22413	99.8	202			inactive
83	Rh7 (Rhodopsin 7)	DRSC10529	108	89.5			inactive

Hits, among the entries above:
predicted target	dsRNA	calcium signal, replicate 1	calcium signal, replicate 2	retest calcium signal, replicate 1	retest calcium signal, replicate 2	call
Adck1 (aarF domain containing kinase 1)	DRSC04394	41.2	198			active
dpr16 (defective proboscis extension response 16)	DRSC12217	65.3	118			active
mRpL20 (mitochondrial ribosomal protein L20)	DRSC09828	55	120			active
RhoGEF3 (Rho guanine nucleotide exchange factor 3)	DRSC08266	55.3	60.2	133	109	active
Prp16 (pre-mRNA processing factor 16)	DRSC19542	61.1	138			active
Raf (Raf oncogene)	DRSC18821	58.3	107			active
CG44000 + CG33995 + CG44001	DRSC02898	52.5	158			active
Xrcc2 (X-ray repair cross complementing 2)	DRSC19984	65.9	117			active
side-VIII (sidestep VIII)	DRSC05883	64.1	119			active
Antdh (Antennal dehydrogenase)	DRSC20307	63.8	126			active
